Assay results from paper PMC11540436.
These are yes or no findings as the source states them, for the method shown. In cells and extracts the contact can be indirect. A yes stands for co-enrichment or nearness to the bait. Other partners may have been found.

Chains of the proteins cited; added tags and fusions are not shown.
UniProt Q6EVK6: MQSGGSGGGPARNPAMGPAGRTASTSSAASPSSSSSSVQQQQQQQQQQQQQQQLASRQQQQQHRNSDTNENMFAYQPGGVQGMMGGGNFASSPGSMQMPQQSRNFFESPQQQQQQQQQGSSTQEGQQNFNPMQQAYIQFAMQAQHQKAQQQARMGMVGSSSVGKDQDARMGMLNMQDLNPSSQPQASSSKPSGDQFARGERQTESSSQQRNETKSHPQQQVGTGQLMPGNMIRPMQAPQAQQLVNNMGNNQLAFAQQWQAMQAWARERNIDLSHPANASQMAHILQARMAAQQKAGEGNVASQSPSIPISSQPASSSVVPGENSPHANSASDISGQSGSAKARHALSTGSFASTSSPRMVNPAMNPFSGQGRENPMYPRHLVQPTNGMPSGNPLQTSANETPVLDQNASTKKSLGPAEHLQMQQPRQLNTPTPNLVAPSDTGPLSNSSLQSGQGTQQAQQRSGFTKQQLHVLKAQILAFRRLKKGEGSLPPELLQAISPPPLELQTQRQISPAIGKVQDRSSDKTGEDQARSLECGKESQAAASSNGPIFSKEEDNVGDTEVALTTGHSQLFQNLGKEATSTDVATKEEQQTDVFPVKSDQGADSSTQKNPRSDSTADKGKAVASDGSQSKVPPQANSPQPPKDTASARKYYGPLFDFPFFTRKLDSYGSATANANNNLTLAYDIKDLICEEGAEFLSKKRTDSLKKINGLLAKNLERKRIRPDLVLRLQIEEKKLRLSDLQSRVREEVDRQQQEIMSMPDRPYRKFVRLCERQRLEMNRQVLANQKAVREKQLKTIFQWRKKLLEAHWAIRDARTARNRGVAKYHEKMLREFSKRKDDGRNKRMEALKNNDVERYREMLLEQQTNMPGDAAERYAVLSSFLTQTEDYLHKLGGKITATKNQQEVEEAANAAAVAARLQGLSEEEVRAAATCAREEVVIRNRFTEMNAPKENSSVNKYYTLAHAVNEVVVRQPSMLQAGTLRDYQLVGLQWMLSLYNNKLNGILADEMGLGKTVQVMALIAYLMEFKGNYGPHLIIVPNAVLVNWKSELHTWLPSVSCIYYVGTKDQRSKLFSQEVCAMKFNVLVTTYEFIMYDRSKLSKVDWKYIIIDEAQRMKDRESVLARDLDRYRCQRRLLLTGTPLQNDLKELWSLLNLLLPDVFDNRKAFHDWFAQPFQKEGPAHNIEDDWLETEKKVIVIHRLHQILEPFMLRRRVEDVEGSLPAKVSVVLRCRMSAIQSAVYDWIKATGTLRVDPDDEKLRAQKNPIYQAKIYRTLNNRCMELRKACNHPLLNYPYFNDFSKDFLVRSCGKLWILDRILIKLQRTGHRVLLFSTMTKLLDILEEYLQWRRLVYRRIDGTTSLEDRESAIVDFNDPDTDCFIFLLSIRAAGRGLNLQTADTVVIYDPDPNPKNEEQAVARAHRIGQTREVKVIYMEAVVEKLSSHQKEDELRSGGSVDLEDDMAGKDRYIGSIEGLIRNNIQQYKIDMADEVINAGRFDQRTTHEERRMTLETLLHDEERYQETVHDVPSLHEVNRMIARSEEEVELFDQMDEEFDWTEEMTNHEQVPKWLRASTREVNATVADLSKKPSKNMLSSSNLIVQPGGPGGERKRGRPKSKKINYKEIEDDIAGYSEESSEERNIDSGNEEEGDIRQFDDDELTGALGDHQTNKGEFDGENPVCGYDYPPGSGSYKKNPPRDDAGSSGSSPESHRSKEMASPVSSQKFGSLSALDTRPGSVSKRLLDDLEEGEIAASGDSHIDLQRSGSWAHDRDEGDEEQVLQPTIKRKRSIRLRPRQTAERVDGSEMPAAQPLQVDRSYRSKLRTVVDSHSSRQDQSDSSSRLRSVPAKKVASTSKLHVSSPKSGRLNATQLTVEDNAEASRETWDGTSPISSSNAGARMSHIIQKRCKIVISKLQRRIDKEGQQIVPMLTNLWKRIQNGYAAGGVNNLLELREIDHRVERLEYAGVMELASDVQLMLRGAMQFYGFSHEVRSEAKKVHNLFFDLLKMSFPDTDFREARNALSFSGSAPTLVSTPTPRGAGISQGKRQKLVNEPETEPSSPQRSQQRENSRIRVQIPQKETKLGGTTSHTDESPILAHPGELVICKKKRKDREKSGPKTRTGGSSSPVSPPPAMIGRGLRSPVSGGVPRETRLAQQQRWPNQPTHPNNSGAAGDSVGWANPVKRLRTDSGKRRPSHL
UniProt F4JLS1: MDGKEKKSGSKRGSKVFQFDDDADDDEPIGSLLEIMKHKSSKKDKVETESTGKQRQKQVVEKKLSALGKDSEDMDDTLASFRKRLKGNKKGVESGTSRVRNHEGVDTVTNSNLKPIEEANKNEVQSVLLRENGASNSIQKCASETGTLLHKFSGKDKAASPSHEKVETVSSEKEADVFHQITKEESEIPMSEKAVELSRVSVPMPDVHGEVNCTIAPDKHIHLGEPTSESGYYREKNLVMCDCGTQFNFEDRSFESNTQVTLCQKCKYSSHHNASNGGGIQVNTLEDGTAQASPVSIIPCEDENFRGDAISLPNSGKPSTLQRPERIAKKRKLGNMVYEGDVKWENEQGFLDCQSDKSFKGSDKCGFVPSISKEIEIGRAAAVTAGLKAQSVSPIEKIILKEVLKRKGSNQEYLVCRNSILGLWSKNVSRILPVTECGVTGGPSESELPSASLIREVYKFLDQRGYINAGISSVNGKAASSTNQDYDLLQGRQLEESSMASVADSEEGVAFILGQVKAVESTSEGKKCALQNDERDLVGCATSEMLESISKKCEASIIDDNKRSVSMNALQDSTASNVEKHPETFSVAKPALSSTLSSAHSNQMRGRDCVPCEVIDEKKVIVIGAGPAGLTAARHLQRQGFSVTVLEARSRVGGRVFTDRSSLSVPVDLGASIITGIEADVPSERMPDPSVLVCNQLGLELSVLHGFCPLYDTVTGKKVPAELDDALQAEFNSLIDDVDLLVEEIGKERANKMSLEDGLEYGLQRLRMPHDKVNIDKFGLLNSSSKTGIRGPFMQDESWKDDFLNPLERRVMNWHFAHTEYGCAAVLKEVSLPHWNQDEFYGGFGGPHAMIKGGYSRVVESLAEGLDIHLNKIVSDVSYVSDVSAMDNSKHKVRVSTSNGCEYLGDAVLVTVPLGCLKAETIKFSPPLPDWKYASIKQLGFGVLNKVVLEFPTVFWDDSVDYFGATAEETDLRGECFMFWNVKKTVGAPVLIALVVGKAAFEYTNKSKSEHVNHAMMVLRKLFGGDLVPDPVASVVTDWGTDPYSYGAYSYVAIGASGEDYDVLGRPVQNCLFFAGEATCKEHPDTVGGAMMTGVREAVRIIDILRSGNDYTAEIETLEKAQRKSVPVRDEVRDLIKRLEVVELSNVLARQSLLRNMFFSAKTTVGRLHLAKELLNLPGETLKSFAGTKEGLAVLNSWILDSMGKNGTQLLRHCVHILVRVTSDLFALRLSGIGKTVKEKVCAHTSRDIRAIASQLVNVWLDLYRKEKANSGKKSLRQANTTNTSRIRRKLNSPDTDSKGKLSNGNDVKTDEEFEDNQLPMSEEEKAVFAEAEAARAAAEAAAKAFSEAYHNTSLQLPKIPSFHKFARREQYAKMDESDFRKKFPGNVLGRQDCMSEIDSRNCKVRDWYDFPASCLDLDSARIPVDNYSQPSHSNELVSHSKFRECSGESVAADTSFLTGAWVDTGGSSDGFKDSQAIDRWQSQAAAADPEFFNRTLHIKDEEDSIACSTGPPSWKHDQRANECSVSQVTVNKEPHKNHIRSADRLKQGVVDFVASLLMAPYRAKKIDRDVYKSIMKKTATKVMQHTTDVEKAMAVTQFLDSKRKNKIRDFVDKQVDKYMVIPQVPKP
UniProt Q9C5T4: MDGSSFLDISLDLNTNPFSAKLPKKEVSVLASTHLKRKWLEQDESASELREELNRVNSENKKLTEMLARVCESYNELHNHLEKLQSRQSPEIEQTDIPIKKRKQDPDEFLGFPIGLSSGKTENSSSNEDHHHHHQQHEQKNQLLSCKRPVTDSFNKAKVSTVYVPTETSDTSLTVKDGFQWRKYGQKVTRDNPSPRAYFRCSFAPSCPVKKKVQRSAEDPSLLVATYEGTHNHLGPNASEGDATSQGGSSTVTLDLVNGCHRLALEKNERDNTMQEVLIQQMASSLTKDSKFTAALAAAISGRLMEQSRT

T1: NPR1-3xHA-TurboID (Arabidopsis thaliana), P93002
T1 chain: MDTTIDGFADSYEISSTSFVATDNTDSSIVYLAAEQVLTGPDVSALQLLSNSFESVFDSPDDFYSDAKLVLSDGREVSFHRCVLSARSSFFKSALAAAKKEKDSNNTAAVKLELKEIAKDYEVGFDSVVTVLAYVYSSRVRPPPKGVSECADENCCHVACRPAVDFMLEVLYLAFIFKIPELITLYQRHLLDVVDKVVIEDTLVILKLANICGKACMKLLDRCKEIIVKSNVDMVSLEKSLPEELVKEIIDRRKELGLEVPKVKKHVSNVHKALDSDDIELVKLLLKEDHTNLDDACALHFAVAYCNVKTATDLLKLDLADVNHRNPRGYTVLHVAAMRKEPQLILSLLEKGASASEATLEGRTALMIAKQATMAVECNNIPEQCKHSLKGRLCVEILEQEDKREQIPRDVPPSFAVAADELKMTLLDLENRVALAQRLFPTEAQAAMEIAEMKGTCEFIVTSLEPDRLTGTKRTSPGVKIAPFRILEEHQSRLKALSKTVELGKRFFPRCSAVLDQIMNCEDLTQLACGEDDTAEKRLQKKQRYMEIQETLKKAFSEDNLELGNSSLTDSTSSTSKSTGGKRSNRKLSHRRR

B1: NPR1-like protein 4 (protein, UniProt Q5ICL9 1-574)
chain: MAATAIEPSSSISFTSSHLSNPSPVVTTYHSAANLEELSSNLEQLLTNPDCDYTDAEIIIEEEANPVSVHRCVLAARSKFFLDLFKKDKDSSEKKPKYQMKDLLPYGNVGREAFLHFLSYIYTGRLKPFPIEVSTCVDSVCAHDSCKPAIDFAVELMYASFVFQIPDLVSSFQRKLRNYVEKSLVENVLPILLVAFHCDLTQLLDQCIERVARSDLDRFCIEKELPLEVLEKIKQLRVKSVNIPEVEDKSIERTGKVLKALDSDDVELVKLLLTESDITLDQANGLHYAVAYSDPKVVTQVLDLDMADVNFRNSRGYTVLHIAAMRREPTIIIPLIQKGANASDFTFDGRSAVNICRRLTRPKDYHTKTSRKEPSKYRLCIDILEREIRRNPLVSGDTPTCSHSMPEDLQMRLLYLEKRVGLAQLFFPAEANVAMDVANVEGTSECTGLLTPPPSNDTTENLGKVDLNETPYVQTKRMLTRMKALMKTVETGRRYFPSCYEVLDKYMDQYMDEEIPDMSYPEKGTVKERRQKRMRYNELKNDVKKAYSKDKVARSCLSSSSPASSLREALENPT
B2: NIM1-interacting 1 (protein, UniProt Q9FNZ5 1-142)
chain: MYPKQFSLYNYSLETMSKDENVESKETIRVDKRVREDEEEEEEKKIDTFFKLIKHYQEARKRRREELAENSGVVRRKSNGGERSGIVVPAFQPEDFSQCRTGLKPPLMFVSDHKEENTKVEQEEDQTEERNEDKALDLNLAL
B3: NPR1-like protein 3, Q8L746 1-586 (protein)
chain: MATLTEPSSSLSFTSSHFSYGSIGSNHFSSSSASNPEVVSLTKLSSNLEQLLSNSDCDYSDAEIIVDGVPVGVHRCILAARSKFFQDLFKKEKKISKTEKPKYQLREMLPYGAVAHEAFLYFLSYIYTGRLKPFPLEVSTCVDPVCSHDCCRPAIDFVVQLMYASSVLQVPELVSSFQRRLCNFVEKTLVENVLPILMVAFNCKLTQLLDQCIERVARSDLYRFCIEKEVPPEVAEKIKQLRLISPQDEETSPKISEKLLERIGKILKALDSDDVELVKLLLTESDITLDQANGLHYSVVYSDPKVVAEILALDMGDVNYRNSRGYTVLHFAAMRREPSIIISLIDKGANASEFTSDGRSAVNILRRLTNPKDYHTKTAKGRESSKARLCIDILEREIRKNPMVLDTPMCSISMPEDLQMRLLYLEKRVGLAQLFFPTEAKVAMDIGNVEGTSEFTGLSPPSSGLTGNLSQVDLNETPHMQTQRLLTRMVALMKTVETGRRFFPYGSEVLDKYMAEYIDDDILDDFHFEKGSTHERRLKRMRYRELKDDVQKAYSKDKESKIARSCLSASSSPSSSSIRDDLHNTT

Each molecule was assayed against NPR1-3xHA-TurboID (Arabidopsis thaliana) (UniProt P93002) (assay: proximity labelling; TurboID in stable transgenic Arabidopsis; 1 mM SA, 1 h later 50 mM biotin for 3 h; streptavidin beads, mild and harsh washes; label-free quantification LC-MS/MS against the control YFP-YFP-TbID). Conditions: not given.

binding | Molecule
binds | BRAHMA (endogenous) (from UniProt Q6EVK6 1-2193)
binds | LSD1-like 3 (endogenous) (from UniProt F4JLS1 1-1628)
binds | WRKY18 (from UniProt Q9C5T4 1-310)
binds | B1
binds | B2

Molecular target: T1, NPR1-3xHA-TurboID (Arabidopsis …)
Assay: as above
Conditions: remark: other sources report otherwise

binding | Molecule
binds | B3
